Experimental findings from PubChem BioAssay AID330 (DTP/NCI, 2004) are described below.

The list shows only some results of the screen, not a fair sample: it gathers tests that were run many times, whatever their T/C, doses with no T/C, and many T/C values between a quarter and a half above the control. Other doses and runs of a compound stand elsewhere. T/C: endpoint of the treated group in % of that of the vehicle group. Some entries give survivors of the animals treated and no T/C: the source files T/C as zero there, which appears to mark a toxic dose or a test without result, not a measured value. Some doses without a T/C left all or most animals alive at the check, yet need not have been tolerated: the source hardly ever lists a survival T/C far under the control, and the zero likely stands for such cases as well. Survivors were counted at the toxicity check, usually on the fifth day, unless a day is given; later deaths do not show. Schedules are NCI's codes, taken here to give the interval after Q, in days (D) or hours (H), and the number of doses after X. Marks such as (2×) stand for listed records that agree. Some doses were run more than once; the results are listed from low to high. Where survival is the endpoint, this PubChem deposit counts one and a half times the control or more as active, and values a quarter to a half above the control carry no call in these data; other NCI protocols may use other cut-offs. Some T/C values are followed by the survivors on the day toxicity was checked, most often the fifth; where none is given, no animal had died by that day.

For the experiment, the system named is P388 leukemia ip, CD2F1 mice, survival T/C. Kind of experiment: NCI In Vivo Anticancer Drug Screen. Data for tumor model P388 Leukemia (intraperitoneal) in CD2F1 (CDF1) mice. To be noted: T/C endpoint: median survival time, higher T/C = longer survival.
The mark [1] stands for this setting: dose: 32.0 mg/kg/injection, schedule: Q01DX009 (ip), vehicle: water.

As for `CCN(CC)CCCNc1nccc2c(OC)cccc12`, the survivor count is on record as 4 of 5 (dose: 100.0 mg/kg/injection, schedule: Q01DX005 (ip), vehicle: saline) and 0 of 5 (dose: 200.0 mg/kg/injection, schedule: Q01DX005 (ip), vehicle: saline).

As for `Oc1ccc(Br)cc1C=NCCS`, the survivor count is, setting by setting: (dose: 60.0 mg/kg/injection, schedule: Q01DX005 (ip), vehicle: saline with Tween-80) 6 of 6; (dose: 120.0 mg/kg/injection, schedule: Q01DX005 (ip), vehicle: saline with Tween-80) 6 of 6.

As to `COc1ccc2cc3cccc[n+]3cc2c1`, the survivor count is given as 0 of 5 (dose: 1.56 mg/kg/injection, schedule: Q01DX005 (ip), vehicle: Klucel (hydroxypropylcellulose) (HPC)); 0 of 5 (dose: 3.12 mg/kg/injection, schedule: Q01DX005 (ip), vehicle: Klucel (hydroxypropylcellulose) (HPC)); 0 of 5 (dose: 6.25 mg/kg/injection, schedule: Q01DX005 (ip), vehicle: Klucel (hydroxypropylcellulose) (HPC)); 0 of 5 (dose: 12.5 mg/kg/injection, schedule: Q01DX005 (ip), vehicle: Klucel (hydroxypropylcellulose) (HPC)); 0 of 5 (dose: 25.0 mg/kg/injection, schedule: Q01DX005 (ip), vehicle: Klucel (hydroxypropylcellulose) (HPC)); 0 of 5 (dose: 50.0 mg/kg/injection, schedule: Q01DX005 (ip), vehicle: Klucel (hydroxypropylcellulose) (HPC)). Besides, the survivor count reads like this: (dose: 100.0 mg/kg/injection, schedule: Q01DX005 (ip), vehicle: Klucel (hydroxypropylcellulose) (HPC)) 0 of 5; (dose: 200.0 mg/kg/injection, schedule: Q01DX005 (ip), vehicle: Klucel (hydroxypropylcellulose) (HPC)) 0 of 5.

For `O=C(c1cccnc1)c1cc(-c2ccccn2)c(=O)n2ccccc12`, the T/C (dose: 200.0 mg/kg/injection, schedule: Q01DX009 (ip), vehicle: saline with Tween-80) was 125 and 144 % of control.

On to `C[N+](C)(C)CCC(=O)c1cccc([N+](=O)[O-])c1`, for which the survivor count reads like this: (dose: 100.0 mg/kg/injection, schedule: Q01DX009 (ip), vehicle: saline) 0 of 6; (dose: 200.0 mg/kg/injection, schedule: Q01DX009 (ip), vehicle: saline) 0 of 6.

Regarding `Cc1c(N)nc([C@H](CC(N)=O)NC[C@H](N)C(N)=O)nc1C(=O)N[C@H](C(=O)N[C@H](C)[C@@H](O)[C@H](C)C(=O)N[C@H](C(=O)NCCc1nc(-c2nc(C(=O)NCCC[S+](C)C)cs2)cs1)[C@@H](C)O)C(OC1OC(CO)C(O)C(O)C1OC1OC(CO)C(O)C(OC(N)=O)C1O)c1cnc[nH]1` (some centres not stated), the T/C was 71, 87, 98, 104 % of control (dose: 1.0 mg/kg/injection, schedule: Q01DX009 (ip), vehicle: saline, evaluated on day 5); 98 and 104 % of control (dose: 1.0 mg/kg/injection, schedule: Q01DX009 (ip), vehicle: saline, evaluated on day 30); 104 % of control (dose: 1.0 mg/kg/injection, schedule: Q01DX009 (ip), vehicle: saline, evaluated on day 60); 63, 96, 97, 107, 109 % of control (dose: 2.0 mg/kg/injection, schedule: Q01DX009 (ip), vehicle: saline, evaluated on day 5); 97 and 104 % of control (dose: 2.0 mg/kg/injection, schedule: Q01DX009 (ip), vehicle: saline, evaluated on day 30); 91 % of control (dose: 2.0 mg/kg/injection, schedule: Q01DX009 (ip), vehicle: saline, evaluated on day 45). Besides, the T/C runs as follows: (dose: 2.0 mg/kg/injection, schedule: Q01DX009 (ip), vehicle: saline, evaluated on day 60) 107 and 109 % of control; (dose: 2.0 mg/kg/injection, schedule: Q01DX009 (ip), vehicle: water) 106 (2×), 111, 112, 126 % of control; (dose: 4.0 mg/kg/injection, schedule: Q01DX009 (ip), vehicle: saline, evaluated on day 5) 59, 76, 98, 99, 107, 108, 110 % of control; (dose: 4.0 mg/kg/injection, schedule: Q01DX009 (ip), vehicle: saline, evaluated on day 6) 130 % of control; (dose: 4.0 mg/kg/injection, schedule: Q01DX009 (ip), vehicle: saline, evaluated on day 30) 98, 107, 109 % of control; (dose: 4.0 mg/kg/injection, schedule: Q01DX009 (ip), vehicle: saline, evaluated on day 45) 95 % of control. Also, the T/C is 109 and 110 % of control (dose: 4.0 mg/kg/injection, schedule: Q01DX009 (ip), vehicle: saline, evaluated on day 60); 115 % of control (dose: 4.0 mg/kg/injection, schedule: Q01DX009 (ip), vehicle: water, evaluated on day 20); 95, 98 [5 of 6 alive], 99, 106, 107, 111, 120, 122, 123, 126, 127, 128, 144 % of control (dose: 4.0 mg/kg/injection, schedule: Q01DX009 (ip), vehicle: water, evaluated on day 30); 66, 74, 94, 103, 105, 109, 111, 116, 122 % of control (dose: 8.0 mg/kg/injection, schedule: Q01DX009 (ip), vehicle: saline, evaluated on day 5); 132 % of control (dose: 8.0 mg/kg/injection, schedule: Q01DX009 (ip), vehicle: saline, evaluated on day 6); 103 and 109 % of control (2×) (dose: 8.0 mg/kg/injection, schedule: Q01DX009 (ip), vehicle: saline, evaluated on day 30). The T/C runs as follows: (dose: 8.0 mg/kg/injection, schedule: Q01DX009 (ip), vehicle: saline, evaluated on day 45) 91 % of control; (dose: 8.0 mg/kg/injection, schedule: Q01DX009 (ip), vehicle: saline, evaluated on day 60) 111 and 113 % of control; (dose: 8.0 mg/kg/injection, schedule: Q01DX009 (ip), vehicle: water, evaluated on day 20) 108 % of control; (dose: 8.0 mg/kg/injection, schedule: Q01DX009 (ip), vehicle: water, evaluated on day 30) 93, 104 (3×), 106 (2×), 108, 113 (2×), 117, 126, 131, 136 % of control; (dose: 12.0 mg/kg/injection, schedule: Q01DX009 (ip), vehicle: saline) 127 % of control; (dose: 16.0 mg/kg/injection, schedule: Q01DX009 (ip), vehicle: saline, evaluated on day 5) 61, 67, 93, 103, 112, 115, 125 % of control. Besides, the T/C (dose: 16.0 mg/kg/injection, schedule: Q01DX009 (ip), vehicle: saline, evaluated on day 30) is 103, 112, 118 % of control; the T/C (dose: 16.0 mg/kg/injection, schedule: Q01DX009 (ip), vehicle: saline, evaluated on day 45) was 91 % of control; the T/C (dose: 16.0 mg/kg/injection, schedule: Q01DX009 (ip), vehicle: saline, evaluated on day 60) is 115 and 127 % of control; the T/C (dose: 16.0 mg/kg/injection, schedule: Q01DX009 (ip), vehicle: water, evaluated on day 20) is 100 % of control; the T/C (dose: 16.0 mg/kg/injection, schedule: Q01DX009 (ip), vehicle: water, evaluated on day 30) was 88, 90, 92, 98, 99 (2×), 101, 102, 109 (2×), 110, 117, 136 % of control; the T/C (dose: 32.0 mg/kg/injection, schedule: Q01DX009 (ip), vehicle: saline, evaluated on day 5) was 51 (2×), 92, 97, 98, 111, 112 % of control. Besides, the T/C (dose: 32.0 mg/kg/injection, schedule: Q01DX009 (ip), vehicle: saline, evaluated on day 30) was 97 and 111 % of control; the T/C (dose: 32.0 mg/kg/injection, schedule: Q01DX009 (ip), vehicle: saline, evaluated on day 45) is 91 % of control; the T/C (dose: 32.0 mg/kg/injection, schedule: Q01DX009 (ip), vehicle: saline, evaluated on day 60) was 98 and 113 % of control; the T/C under setting [1] was 86, 98, 98 % of control [5 of 6 alive]; the T/C (dose: 32.0 mg/kg/injection, schedule: Q04DX003 (ip), vehicle: saline) is 125 % of control. Besides, the survivor count is 10 of 10 (2×) (dose: 1.0 mg/kg/injection, schedule: Q01DX009 (ip), vehicle: saline); 10 of 10 (dose: 2.0 mg/kg/injection, schedule: Q01DX009 (ip), vehicle: saline); 10 of 10 (dose: 4.0 mg/kg/injection, schedule: Q01DX009 (ip), vehicle: saline); 10 of 10 (dose: 8.0 mg/kg/injection, schedule: Q01DX009 (ip), vehicle: saline); 10 of 10 (dose: 16.0 mg/kg/injection, schedule: Q01DX009 (ip), vehicle: saline); 7 of 10 and 8 of 10 (dose: 32.0 mg/kg/injection, schedule: Q01DX009 (ip), vehicle: saline). For the same compound, the survivor count under setting [1] is 2 of 3 and 6 of 6 (2×).
